Measured values from patent US8173660B2, “Process for the preparation of 3-amino-8-(1-piperazinyl)-2H-1-benzopyran-2-one and salts and solvates thereof” (priority 2004, dated 2012).
At least one structure is not confirmed: it was looked up by name or label, or the drawing left a doubt.

Columns and labels:
[1] = target: Tumor necrosis f.; test: receptor binding Tumor necrosis f.; conditions: rat; radioligand [125I]-TNFα
[2] = target: benzodiazepine; test: receptor binding benzodiazepine; conditions: rat; radioligand [3H]-diazepam
[3] = target: Interleukine-8; test: receptor binding Interleukine-8; conditions: human; radioligand [125I]-interleukine-8
[4] = target: tryptamine; test: receptor binding tryptamine; conditions: rat; radioligand [3H]-tryptamine
[5] = target: T1, K+-channel; test: binding K+-channel ([125I]-α-dendrotoxin); conditions: rat; radioligand [125I]-α-dendrotoxin
T1 construct: rows headed: Ki (nM); other: rat; radioligand [125I]-α-dendrotoxin

[6] = target: TRH; test: receptor binding TRH; conditions: rat; radioligand [3H]-TRH
[7] = target: bombesin; test: receptor binding bombesin; conditions: rat; radioligand [125I]-bombesin
[8] = target: melatonin; test: receptor binding melatonin; conditions: chicken; radioligand [125I]-2-iodomelatonin
[9] = target: T2, K+-channel; test: binding K+-channel ([125I]-apamin); conditions: rat; radioligand [125I]-apamin
T2 construct: rows headed: Ki (nM); other: rat; radioligand [125I]-apamin

[10] = target: 5-HT1D; test: receptor binding 5-HT1D; conditions: bovine; radioligand [3H]-serotonin
[11] = target: NMDA; test: receptor binding NMDA; conditions: rat; radioligand [3H]-CGS 19755
[12] = target: α1-adrenergic; test: receptor binding α1-adrenergic; conditions: rat; radioligand [3H]-prazosin
[13] = target: α2-adrenergic; test: receptor binding α2-adrenergic; conditions: rat; radioligand [3H]-RX 821002
[14] = target: PACAP; test: receptor binding PACAP; conditions: rat; radioligand [125I]-PACAP 1-27
[15] = target: somatostatin; test: receptor binding somatostatin; conditions: mouse; radioligand [125I]-somatostatin
[16] = target: GABAA; test: receptor binding GABAA; conditions: rat; radioligand [3H]-muscimol
[17] = target: melanocortin; test: receptor binding melanocortin; conditions: human; radioligand [125I]-NDP-a-MSH
[18] = target: sigma; test: receptor binding sigma; conditions: rat; radioligand [3H]-DTG
[19] = target: Na+-channel; test: binding Na+-channel; conditions: rat; radioligand [3H]-bathrachotoxinin

Nc1cc2cccc(N3CCNCC3)c2oc1=O [Compound 1, 3-amino-8-(1-piperazinyl)-2H-1-benzopyran-2-one]
Ki [1]: > 1000 nM
Ki [2]: > 10 µM
Ki [3]: > 1000 nM
Ki [4]: > 10 µM
Ki [5]: > 1000 nM
Ki [6]: > 10 µM
Ki [7]: > 1000 nM
Ki [8]: > 10 µM
Ki [9]: > 1000 nM
Ki [10]: 13 nM
Ki [11]: > 10 µM
Ki [12]: > 1000 nM
Ki [13]: > 1000 nM
Ki [14]: > 1000 nM
Ki [15]: > 1000 nM
Ki [16]: > 10 µM
Ki [17]: > 1000 nM
Ki [18]: > 1000 nM
Ki [19]: > 10 µM
